Reference: US8093281B2, “Indazoles as glucocorticoid receptor ligands” (Glaxo Group Limited, priority 2005, dated 2012)
Some entries share one result that the patent states for a list of compounds.

The compounds below were run on NFkB activity (assay: Glucocorticoid mediated transrepression of NFkB activity (A549 cells, ELAM promoter alkaline phosphatase reporter, TNFα stimulated)). Conditions: Human A549 lung epithelial cells, 3 ng/ml human recombinant TNFα, 16 hr.
Type: cell-based
Description: Human A549 lung epithelial cells were engineered to contain a secreted placental alkaline phosphatase gene under the control of the distal region of the NFkB dependent ELAM promoter as previously described in Ray, K. P., Farrow, S., Daly, M., Talabot, F. and Searle, N. “Induction of the E-selectin promoter by interleukin 1 and tumour necrosis factor alpha, and inhibition by glucocorticoids” Biochemical Journal (1997) 328: 707-15.
Compounds were solvated and diluted in DMSO, and transferred directly into assay plates such that the final concentration of DMSO was 0.7%. Following the addition of cells (40K per well), plates were incubated for 1 hr prior to the addition of 3 ng/ml human recombinant TNFα. Following continued incubation for 16 hr, alkaline phosphatase activity was determined by measuring the change in optical density at 405 nm with time following the addition of 0.7 volumes of assay buffer (1 mg/ml p-nitrophenylphosphate dissolved in 1M diethanolamine, 0.28M NaCl, 0.5 mM MgCl2). Dose response curves were constructed from which EC50 values were estimated.

SMILES	pEC50, transrepression of NFkB activity
COc1ccc(F)cc1C(C)(C)CC(O)(CNc1cc(C)cc2c1cnn2-c1ccc(F)cc1)C(F)(F)F (single isomer, unassigned) [Example 26-B, 1,1,1-Trifluoro-4-[5-fluoro-2-(methyloxy)phenyl]-2-({[1-(4-fluorophenyl)-6-methyl-1H-indazol-4-yl]amino}methyl)-4-methyl-2-pentanol]	> 8.5

Same assay, conditions: Human A549 lung epithelial cells, 3 ng/ml human recombinant TNFα, 16 hr; listed as 26B

SMILES	pEC50, transrepression of NFkB activity
COc1ccc(F)cc1C(C)(C)CC(O)(CNc1cc(C)cc2c1cnn2-c1ccc(F)cc1)C(F)(F)F (single isomer, unassigned) [Example 26-B, 1,1,1-Trifluoro-4-[5-fluoro-2-(methyloxy)phenyl]-2-({[1-(4-fluorophenyl)-6-methyl-1H-indazol-4-yl]amino}methyl)-4-methyl-2-pentanol]	> 9.5

Each compound was assayed against T1, glucocorticoid receptor (Homo sapiens, UniProt P04150) (assay: Glucocorticoid receptor binding assay (fluorescence polarisation, competition with Alexa 555 labelled dexamethasone derivative)). Conditions: partially purified full length glucocorticoid receptor, 2 hrs room temperature.
T1 construct: a partially purified full length glucocorticoid receptor
T1 sequence (P04150 1-777): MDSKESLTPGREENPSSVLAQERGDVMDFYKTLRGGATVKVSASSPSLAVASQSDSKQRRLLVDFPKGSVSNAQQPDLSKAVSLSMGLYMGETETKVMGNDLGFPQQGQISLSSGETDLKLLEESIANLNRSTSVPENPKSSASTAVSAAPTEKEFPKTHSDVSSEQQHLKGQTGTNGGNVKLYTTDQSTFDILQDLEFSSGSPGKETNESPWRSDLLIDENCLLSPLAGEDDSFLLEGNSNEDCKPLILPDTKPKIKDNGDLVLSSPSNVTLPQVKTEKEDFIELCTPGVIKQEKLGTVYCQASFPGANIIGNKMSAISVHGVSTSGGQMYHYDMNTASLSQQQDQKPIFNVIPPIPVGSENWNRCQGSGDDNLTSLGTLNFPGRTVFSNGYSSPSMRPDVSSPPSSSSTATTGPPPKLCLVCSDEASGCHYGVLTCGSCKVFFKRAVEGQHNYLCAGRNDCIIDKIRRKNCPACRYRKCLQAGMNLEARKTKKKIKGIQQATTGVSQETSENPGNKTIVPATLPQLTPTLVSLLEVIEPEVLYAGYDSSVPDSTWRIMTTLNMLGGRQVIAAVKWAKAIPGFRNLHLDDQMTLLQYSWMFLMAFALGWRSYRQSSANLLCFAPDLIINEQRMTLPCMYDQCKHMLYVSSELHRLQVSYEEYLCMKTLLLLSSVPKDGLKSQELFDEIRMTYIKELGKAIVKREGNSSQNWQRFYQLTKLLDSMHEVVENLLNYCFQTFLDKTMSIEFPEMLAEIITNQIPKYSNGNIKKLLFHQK

SMILES	glucocorticoid binding pIC50
COc1ccc(F)cc1C(C)(C)CC(O)(CNc1cccc2c1cnn2-c1ccncc1)C(F)(F)F (racemic) [Example 5, 1,1,1-Trifluoro-4-[5-fluoro-2-(methyloxy)phenyl]-4-methyl-2-({[1-(4-pyridinyl)-1H-indazol-4-yl]amino}methyl)-2-pentanol]	> 7
COc1ccc(F)cc1C(C)(C)CC(O)(CNc1cc(C)cc2c1cnn2-c1ccccc1F)C(F)(F)F (single isomer, unassigned) [Example 25-A, 1,1,1-Trifluoro-4-[5-fluoro-2-(methyloxy)phenyl]-2-({[1-(2-fluorophenyl)-6-methyl-1H-indazol-4-yl]amino}methyl)-4-methyl-2-pentanol]	> 7
CC(C)(CC(O)(CNc1cccc2c1cnn2-c1ccncc1)C(F)(F)F)c1cccc2c1OCC2 (racemic) [Example 13, 4-(2,3-Dihydro-1-benzofuran-7-yl)-1,1,1-trifluoro-4-methyl-2-({[1-(4-pyridinyl)-1H-indazol-4-yl]amino}methyl)-2-pentanol]	> 7
COc1ccc(F)cc1C(C)(C)CC(O)(CNc1cccc2c1cnn2-c1ccc(F)cc1F)C(F)(F)F (racemic) [Example 4, 2-({[1-(2,4-Difluorophenyl)-1H-indazol-4-yl]amino}methyl)-1,1′-trifluoro-4-[5-fluoro-2-(methyloxy)phenyl]-4-methyl-2-pentanol]	> 7
COc1ccc(-n2ncc3c(NCC(O)(CC(C)(C)c4cccc5c4OCC5)C(F)(F)F)cccc32)cc1 (racemic) [Example 28, 4-(2,3-Dihydro-1-benzofuran-7-yl)-1,1,1-trifluoro-4-methyl-2-[({1-[4-(methyloxy)phenyl]-1H-indazol-4-yl}amino)methyl]-2-pentanol]	> 7
COc1ccc(F)cc1C(C)(C)CC(O)(CNc1cccc2c1cnn2-c1ccccc1F)C(F)(F)F (racemic) [Example 1, 1,1,1-Trifluoro-4-[5-fluoro-2-(methyloxy)phenyl]-2-({[1-(2-fluorophenyl)-1H-indazol-4-yl]amino}methyl)-4-methyl-2-pentanol]	> 7
Cc1cc(NCC(O)(CC(C)(C)c2cccc3c2OCC3)C(F)(F)F)c2cnn(-c3ccccc3)c2c1 (racemic) [Example 17, 4-(2,3-Dihydro-1-benzofuran-7-yl)-1,1,1-trifluoro-4-methyl-2-{[(6-methyl-1-phenyl-1H-indazol-4-yl)amino]methyl}-2-pentanol]	> 7
COC(=O)c1cccc(-n2ncc3c(NCC(O)(CC(C)(C)c4cc(F)ccc4OC)C(F)(F)F)cccc32)c1 (single isomer, unassigned) [Example 14-B, Methyl 3-(4-{[4-[5-fluoro-2-(methyloxy)phenyl]-2-hydroxy-4-methyl-2-(trifluoromethyl)pentyl]amino}-1H-indazol-1-yl)benzoate]	> 7
COc1ccc(F)cc1C(C)(C)CC(O)(CNc1cc(C)cc2c1cnn2-c1ccc(F)cc1F)C(F)(F)F (racemic) [Example 16, 2-({[1-(2,4-Difluorophenyl)-6-methyl-1H-indazol-4-yl]amino}methyl)-1,1,1-trifluoro-4-[5-fluoro-2-(methyloxy)phenyl]-4-methyl-2-pentanol]	> 7
COc1ccc(F)cc1C(C)(C)CC(O)(CNc1cc(C)cc2c1cnn2-c1ccccc1)C(F)(F)F (single isomer, unassigned) [Example 15-B, 1,1,1-Trifluoro-4-[5-fluoro-2-(methyloxy)phenyl]-4-methyl-2-{[(6-methyl-1-phenyl-1H-indazol-4-yl)amino]methyl}-2-pentanol]	> 7
COC(=O)c1cccc(-n2ncc3c(NCC(O)(CC(C)(C)c4cc(F)ccc4OC)C(F)(F)F)cccc32)c1 (racemic) [Example 14, Methyl 3-(4-{[4-[5-fluoro-2-(methyloxy)phenyl]-2-hydroxy-4-methyl-2-(trifluoromethyl)pentyl]amino}-1H-indazol-1-yl)benzoate]	> 7
Cc1cc(NC[C@@](O)(CC(C)(C)c2cccc3c2OCC3)C(F)(F)F)c2cnn(-c3ccccc3)c2c1 [Example 17-A, (2S)-4-(2,3-Dihydro-1-benzofuran-7-yl)-1,1,1-trifluoro-4-methyl-2-{[(6-methyl-1-phenyl-1H-indazol-4-yl)amino]methyl}-2-pentanol]	> 7
CC(C)(CC(O)(CNc1cccc2c1cnn2-c1ccc(F)cc1F)C(F)(F)F)c1cccc2c1OCC2 (racemic) [Example 12, 2-({[1-(2,4-Difluorophenyl)-1H-indazol-4-yl]amino}methyl)-4-(2,3-dihydro-1-benzofuran-7-yl)-1,1,1-trifluoro-4-methyl-2-pentanol]	> 7
COc1ccc(-n2ncc3c(NCC(O)(CC(C)(C)c4cc(F)ccc4OC)C(F)(F)F)cc(C)cc32)cc1 (centres unmarked) [Example 19, 1,1,1-Trifluoro-4-[5-fluoro-2-(methyloxy)phenyl]-4-methyl-2-[({6-methyl-1-[4-(methyloxy)phenyl]-1H-indazol-4-yl}amino)methyl]-2-pentanol]	> 7
Cc1cc(NC[C@](O)(CC(C)(C)c2cc(F)ccc2O)C(F)(F)F)c2cnn(-c3ccc(F)cc3F)c2c1 [Example 18, 2(R)-2-[3-({[1-(2,4-Difluorophenyl)-6-methyl-1H-indazol-4-yl]amino}methyl)-4,4,4-trifluoro-3-hydroxy-1,1-dimethylbutyl]-4-fluorophenol]	> 7
CCOC(=O)c1cccc(-n2ncc3c(NCC(O)(CC(C)(C)c4cc(F)ccc4OC)C(F)(F)F)cccc32)c1 (single isomer, unassigned) [Example 6-A, Ethyl 3-(4-{[4-[5-fluoro-2-(methyloxy)phenyl]-2-hydroxy-4-methyl-2-(trifluoromethyl)pentyl]amino}-1H-indazol-1-yl)benzoate]	> 7
Cc1cc(NCC(O)(CC(C)(C)c2cc(F)ccc2O)C(F)(F)F)c2cnn(-c3cccc(O)c3)c2c1 (single isomer, unassigned) [Example 24-A, 4-Fluoro-2-[4,4,4-trifluoro-3-hydroxy-3-({[1-(3-hydroxyphenyl)-6-methyl-1H-indazol-4-yl]amino}methyl)-1,1-dimethylbutyl]phenol]	> 7
COc1ccc(F)cc1C(C)(C)CC(O)(CNc1cc(C)cc2c1cnn2-c1ccc(F)cc1)C(F)(F)F (single isomer, unassigned) [Example 26-B, 1,1,1-Trifluoro-4-[5-fluoro-2-(methyloxy)phenyl]-2-({[1-(4-fluorophenyl)-6-methyl-1H-indazol-4-yl]amino}methyl)-4-methyl-2-pentanol]	> 7
